From publication PMC7140434
These are yes or no findings as the source states them, for the method shown. In cells and extracts the contact can be indirect. Here binding means that the protein was enriched with, or labelled near, the bait; the list need not be complete.

T1: APEX2-emerin (UniProt P50402)
T1 sequence: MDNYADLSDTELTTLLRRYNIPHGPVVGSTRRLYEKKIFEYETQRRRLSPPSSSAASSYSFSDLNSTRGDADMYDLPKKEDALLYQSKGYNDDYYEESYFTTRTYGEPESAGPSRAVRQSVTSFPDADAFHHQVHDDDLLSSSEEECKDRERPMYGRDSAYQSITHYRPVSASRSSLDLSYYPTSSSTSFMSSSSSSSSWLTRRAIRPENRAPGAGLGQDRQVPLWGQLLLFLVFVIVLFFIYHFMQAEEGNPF

T2: APEX2-emerin, P50402
T2 chain: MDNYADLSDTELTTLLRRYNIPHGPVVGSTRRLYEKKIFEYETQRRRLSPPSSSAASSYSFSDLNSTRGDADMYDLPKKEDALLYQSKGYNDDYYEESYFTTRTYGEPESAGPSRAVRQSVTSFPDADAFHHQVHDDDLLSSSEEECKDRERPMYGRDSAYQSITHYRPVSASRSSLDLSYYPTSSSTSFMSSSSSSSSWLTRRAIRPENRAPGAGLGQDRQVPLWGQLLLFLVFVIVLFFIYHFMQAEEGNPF


Columns and labels:
APEX2-emerin [1] = biological target: T1, APEX2-emerin; assay: proximity labelling; standard APEX2 approach: HeLa cells transfected with APEX2-emerin or GFP-APEX2; 500 µM biotin-phenol 30 min, 1 mM H2O2 1 min at room temperature; RIPA lysate bound to Neutravidin beads; bound fraction analysed by immunoblotting
APEX2-emerin [2] = biological target: T1, APEX2-emerin; assay: proximity labelling; standard APEX2 approach: HeLa cells transfected with APEX2-emerin or GFP-APEX2, compared by SILAC (forward and reverse); Neutravidin eluates analysed by quantitative mass spectrometry
APEX2-emerin, P50402 = biological target: T2, APEX2-emerin, P50402; assay: proximity labelling; standard APEX2 approach: HeLa cells transfected with APEX2-emerin or GFP-APEX2; 500 µM biotin-phenol 30 min, 1 mM H2O2 1 min at room temperature; RIPA lysate bound to Neutravidin beads; bound fraction analysed by immunoblotting; settings: remark: other sources report otherwise

Row | Molecule | binding (APEX2-emerin [1]) | binding (APEX2-emerin [2]) | binding (APEX2-emerin, P50402)
1 | lamin A (from UniProt P02545 1-646) | binds | binds | –
2 | lamin C, P02545-2 1-572 (protein) METPSQRRATRSGAQASSTPLSPTRITRLQEKEDLQELNDRLAVYIDRVRSLETENAGLRLRITESEEVVSREVSGIKAAYEAELGDARKTLDSVAKERARLQLELSKVREEFKELKARNTKKEGDLIAAQARLKDLEALLNSKEAALSTALSEKRTLEGELHDLRGQVAKLEAALGEAKKQLQDEMLRRVDAENRLQTMKEELDFQKNIYSEELRETKRRHETRLVEIDNGKQREFESRLADALQELRAQHEDQVEQYKKELEKTYSAKLDNARQSAERNSNLVGAAHEELQQSRIRIDSLSAQLSQLQKQLAAKEAKLRDLEDSLARERDTSRRLLAEKEREMAEMRARMQQQLDEYQELLDIKLALDMEIHAYRKLLEGEEERLRLSPSPTSQRSRGRASSHSSQTQGGGSVTKKRKLESTESRSSFSQHARTSGRVAVEEVDEEGKFVRLRNKSNEDQSMGNWQIKRQNGDDPLLTYRFPPKFTLKAGQVVTIWAAGAGATHSPPTDLVWKAQNTWGCGNSLRTALINSTGEEVAMRKLVRSVTVVEDDEDEDGDDLLHHHHVSGSRR | – | – | binds
